Experimental findings from the supplement of paper PMC7666118 are described below.

Chains of the proteins cited; added tags and fusions are not shown. Lines headed by an entry give the natural chain unless they say otherwise; changes in a name come on top.
UniProt Q01105, whole entry: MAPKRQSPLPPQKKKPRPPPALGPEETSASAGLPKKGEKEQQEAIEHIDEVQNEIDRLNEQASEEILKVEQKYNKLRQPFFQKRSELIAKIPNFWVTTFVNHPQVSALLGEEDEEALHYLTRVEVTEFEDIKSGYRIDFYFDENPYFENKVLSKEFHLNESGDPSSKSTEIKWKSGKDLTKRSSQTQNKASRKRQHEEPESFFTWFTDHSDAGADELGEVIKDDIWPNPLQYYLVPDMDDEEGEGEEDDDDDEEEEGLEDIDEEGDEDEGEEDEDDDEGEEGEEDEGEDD
UniProt O15127: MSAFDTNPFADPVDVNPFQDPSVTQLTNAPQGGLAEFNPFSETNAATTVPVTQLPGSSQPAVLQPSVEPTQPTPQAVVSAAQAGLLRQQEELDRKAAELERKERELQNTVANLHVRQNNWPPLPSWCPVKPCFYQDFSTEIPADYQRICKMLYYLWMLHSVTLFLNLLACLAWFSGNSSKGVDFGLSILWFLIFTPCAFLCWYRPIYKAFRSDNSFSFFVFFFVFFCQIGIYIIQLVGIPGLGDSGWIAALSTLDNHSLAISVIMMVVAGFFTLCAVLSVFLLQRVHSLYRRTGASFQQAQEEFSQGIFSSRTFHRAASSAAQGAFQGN
UniProt Q9HB40: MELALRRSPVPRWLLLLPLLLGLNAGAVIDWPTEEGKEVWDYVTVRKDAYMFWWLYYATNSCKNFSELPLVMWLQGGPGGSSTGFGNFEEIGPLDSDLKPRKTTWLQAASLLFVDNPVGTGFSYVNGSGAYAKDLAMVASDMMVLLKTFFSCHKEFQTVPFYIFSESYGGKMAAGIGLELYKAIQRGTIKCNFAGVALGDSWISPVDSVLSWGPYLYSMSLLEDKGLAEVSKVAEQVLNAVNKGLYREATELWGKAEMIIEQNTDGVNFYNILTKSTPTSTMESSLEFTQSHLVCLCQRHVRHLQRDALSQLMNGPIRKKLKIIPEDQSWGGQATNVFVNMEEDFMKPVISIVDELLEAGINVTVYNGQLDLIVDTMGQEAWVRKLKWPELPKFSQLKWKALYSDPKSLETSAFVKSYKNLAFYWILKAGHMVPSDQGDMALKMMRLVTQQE
UniProt O00767: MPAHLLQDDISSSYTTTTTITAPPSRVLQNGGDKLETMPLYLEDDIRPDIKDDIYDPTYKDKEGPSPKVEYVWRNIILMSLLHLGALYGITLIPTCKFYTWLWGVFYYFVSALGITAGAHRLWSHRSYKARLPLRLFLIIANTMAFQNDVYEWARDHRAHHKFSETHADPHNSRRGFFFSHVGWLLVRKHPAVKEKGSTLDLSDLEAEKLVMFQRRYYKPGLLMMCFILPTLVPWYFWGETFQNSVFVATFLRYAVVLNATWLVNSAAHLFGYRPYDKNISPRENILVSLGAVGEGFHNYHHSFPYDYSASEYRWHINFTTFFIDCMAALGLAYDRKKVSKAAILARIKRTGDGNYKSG
UniProt P04920: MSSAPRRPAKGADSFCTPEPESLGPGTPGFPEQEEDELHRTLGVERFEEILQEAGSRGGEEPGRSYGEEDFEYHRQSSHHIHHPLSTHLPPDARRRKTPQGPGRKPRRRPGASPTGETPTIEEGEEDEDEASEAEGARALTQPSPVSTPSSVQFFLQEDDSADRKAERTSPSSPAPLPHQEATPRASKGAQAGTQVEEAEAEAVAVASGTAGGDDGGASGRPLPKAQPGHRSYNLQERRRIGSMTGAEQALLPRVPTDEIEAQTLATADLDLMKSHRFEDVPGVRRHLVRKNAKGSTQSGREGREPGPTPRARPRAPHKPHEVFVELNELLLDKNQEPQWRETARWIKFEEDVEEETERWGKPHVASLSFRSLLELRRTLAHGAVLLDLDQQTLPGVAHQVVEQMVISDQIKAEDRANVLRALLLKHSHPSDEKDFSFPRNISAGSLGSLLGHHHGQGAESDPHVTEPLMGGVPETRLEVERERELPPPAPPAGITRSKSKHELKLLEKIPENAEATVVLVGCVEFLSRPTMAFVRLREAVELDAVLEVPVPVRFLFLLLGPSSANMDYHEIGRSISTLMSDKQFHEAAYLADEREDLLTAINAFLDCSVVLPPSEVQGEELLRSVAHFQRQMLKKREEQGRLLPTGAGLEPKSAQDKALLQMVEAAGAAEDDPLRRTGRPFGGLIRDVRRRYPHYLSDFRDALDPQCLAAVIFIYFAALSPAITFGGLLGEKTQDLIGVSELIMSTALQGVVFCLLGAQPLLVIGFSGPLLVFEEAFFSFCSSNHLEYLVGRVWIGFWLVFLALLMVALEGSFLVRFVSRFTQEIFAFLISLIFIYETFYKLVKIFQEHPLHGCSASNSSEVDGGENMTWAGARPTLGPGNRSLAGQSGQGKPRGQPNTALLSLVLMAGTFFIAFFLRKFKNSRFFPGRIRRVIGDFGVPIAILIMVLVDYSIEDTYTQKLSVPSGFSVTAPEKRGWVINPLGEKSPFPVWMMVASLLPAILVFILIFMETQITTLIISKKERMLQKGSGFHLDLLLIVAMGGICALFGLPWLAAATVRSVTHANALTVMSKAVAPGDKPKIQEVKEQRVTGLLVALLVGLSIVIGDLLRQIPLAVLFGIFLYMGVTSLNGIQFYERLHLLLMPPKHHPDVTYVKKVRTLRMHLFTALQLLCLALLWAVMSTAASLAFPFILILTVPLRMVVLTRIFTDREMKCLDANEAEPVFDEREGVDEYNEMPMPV
UniProt Q16181: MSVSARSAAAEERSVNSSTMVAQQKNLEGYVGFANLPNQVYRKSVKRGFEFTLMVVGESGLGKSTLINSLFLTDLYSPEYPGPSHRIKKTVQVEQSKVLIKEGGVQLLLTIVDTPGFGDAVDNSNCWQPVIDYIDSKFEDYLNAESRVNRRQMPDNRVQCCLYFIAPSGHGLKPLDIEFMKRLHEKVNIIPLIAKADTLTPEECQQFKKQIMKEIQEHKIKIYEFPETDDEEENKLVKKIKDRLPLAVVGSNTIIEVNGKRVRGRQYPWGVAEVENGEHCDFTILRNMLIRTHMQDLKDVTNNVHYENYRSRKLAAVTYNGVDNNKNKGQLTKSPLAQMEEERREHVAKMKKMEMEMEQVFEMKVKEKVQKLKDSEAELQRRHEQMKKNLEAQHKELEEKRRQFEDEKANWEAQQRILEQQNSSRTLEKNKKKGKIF
UniProt Q9UGH3: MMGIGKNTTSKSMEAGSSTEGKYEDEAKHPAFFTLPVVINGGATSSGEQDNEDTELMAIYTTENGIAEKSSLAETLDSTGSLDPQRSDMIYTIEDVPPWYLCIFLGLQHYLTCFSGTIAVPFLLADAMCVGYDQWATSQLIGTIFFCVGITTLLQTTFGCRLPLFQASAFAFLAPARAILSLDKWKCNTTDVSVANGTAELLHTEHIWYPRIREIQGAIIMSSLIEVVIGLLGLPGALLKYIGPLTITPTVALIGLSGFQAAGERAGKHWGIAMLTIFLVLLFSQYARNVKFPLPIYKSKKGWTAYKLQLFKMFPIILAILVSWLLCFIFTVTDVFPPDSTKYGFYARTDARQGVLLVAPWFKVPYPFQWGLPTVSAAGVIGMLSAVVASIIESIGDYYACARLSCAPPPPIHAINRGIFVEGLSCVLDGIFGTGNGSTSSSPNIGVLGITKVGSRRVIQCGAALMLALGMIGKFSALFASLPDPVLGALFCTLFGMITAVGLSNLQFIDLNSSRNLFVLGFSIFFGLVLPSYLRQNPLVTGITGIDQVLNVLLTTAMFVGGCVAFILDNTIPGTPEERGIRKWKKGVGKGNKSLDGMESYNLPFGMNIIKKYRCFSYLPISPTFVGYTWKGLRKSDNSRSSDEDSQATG
UniProt O75396: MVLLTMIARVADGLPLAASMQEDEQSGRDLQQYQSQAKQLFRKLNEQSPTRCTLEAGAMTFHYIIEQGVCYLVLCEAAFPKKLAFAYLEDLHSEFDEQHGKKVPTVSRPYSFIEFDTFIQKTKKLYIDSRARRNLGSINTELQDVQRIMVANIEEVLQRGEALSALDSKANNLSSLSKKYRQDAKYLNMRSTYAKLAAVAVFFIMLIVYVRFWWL
UniProt Q96T21: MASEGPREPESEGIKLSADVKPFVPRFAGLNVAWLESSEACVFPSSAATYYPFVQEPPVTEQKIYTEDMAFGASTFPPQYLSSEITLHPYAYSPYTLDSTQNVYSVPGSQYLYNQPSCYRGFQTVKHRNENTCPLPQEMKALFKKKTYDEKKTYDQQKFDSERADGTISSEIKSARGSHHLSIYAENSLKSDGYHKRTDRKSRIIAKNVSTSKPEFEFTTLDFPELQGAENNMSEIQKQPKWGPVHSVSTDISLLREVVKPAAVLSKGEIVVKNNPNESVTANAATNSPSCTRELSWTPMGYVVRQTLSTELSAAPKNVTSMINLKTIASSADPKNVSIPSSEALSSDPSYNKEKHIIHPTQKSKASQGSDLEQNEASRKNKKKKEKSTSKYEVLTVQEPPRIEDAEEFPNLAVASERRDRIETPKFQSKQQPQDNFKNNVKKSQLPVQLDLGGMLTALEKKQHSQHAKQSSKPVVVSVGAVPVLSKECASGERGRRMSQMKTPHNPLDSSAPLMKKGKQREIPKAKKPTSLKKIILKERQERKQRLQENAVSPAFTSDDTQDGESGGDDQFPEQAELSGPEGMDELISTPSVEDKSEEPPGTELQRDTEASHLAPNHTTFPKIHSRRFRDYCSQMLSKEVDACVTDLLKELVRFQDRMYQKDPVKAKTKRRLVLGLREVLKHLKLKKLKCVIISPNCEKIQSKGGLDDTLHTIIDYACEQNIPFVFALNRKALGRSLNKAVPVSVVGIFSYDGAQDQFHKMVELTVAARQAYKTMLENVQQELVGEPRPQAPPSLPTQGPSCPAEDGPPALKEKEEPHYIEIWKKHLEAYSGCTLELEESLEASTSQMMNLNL
UniProt Q96EQ0: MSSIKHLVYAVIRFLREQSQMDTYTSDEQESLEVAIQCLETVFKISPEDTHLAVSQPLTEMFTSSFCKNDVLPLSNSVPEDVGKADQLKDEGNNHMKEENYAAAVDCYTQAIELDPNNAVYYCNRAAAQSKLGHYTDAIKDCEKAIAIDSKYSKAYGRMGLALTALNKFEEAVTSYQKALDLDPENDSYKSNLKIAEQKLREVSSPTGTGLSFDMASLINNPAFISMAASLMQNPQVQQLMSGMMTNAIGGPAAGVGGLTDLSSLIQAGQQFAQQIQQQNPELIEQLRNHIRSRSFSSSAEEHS
UniProt P41440: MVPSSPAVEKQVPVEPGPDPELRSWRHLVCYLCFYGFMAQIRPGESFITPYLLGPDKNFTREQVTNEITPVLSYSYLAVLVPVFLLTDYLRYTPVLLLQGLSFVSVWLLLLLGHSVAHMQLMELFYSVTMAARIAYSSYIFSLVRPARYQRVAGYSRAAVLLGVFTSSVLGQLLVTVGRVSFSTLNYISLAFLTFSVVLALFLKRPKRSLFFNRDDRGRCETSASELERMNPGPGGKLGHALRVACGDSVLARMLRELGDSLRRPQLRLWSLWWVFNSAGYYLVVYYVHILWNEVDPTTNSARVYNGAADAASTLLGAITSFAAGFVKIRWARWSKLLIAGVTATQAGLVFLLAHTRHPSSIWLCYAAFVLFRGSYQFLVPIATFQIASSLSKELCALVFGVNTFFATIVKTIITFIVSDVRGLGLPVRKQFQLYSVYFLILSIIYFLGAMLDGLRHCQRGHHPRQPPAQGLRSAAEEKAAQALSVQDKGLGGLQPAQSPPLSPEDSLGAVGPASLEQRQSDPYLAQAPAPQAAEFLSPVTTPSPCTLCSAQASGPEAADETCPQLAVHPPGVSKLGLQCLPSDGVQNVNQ
UniProt O75880: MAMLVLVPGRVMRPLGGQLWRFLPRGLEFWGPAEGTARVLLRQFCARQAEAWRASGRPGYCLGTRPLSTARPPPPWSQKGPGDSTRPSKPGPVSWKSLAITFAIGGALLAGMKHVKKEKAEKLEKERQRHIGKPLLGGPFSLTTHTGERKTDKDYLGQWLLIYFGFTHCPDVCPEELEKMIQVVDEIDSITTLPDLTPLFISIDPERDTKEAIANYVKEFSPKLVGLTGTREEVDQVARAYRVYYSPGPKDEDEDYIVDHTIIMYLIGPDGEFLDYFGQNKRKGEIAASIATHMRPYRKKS
UniProt Q9Y371: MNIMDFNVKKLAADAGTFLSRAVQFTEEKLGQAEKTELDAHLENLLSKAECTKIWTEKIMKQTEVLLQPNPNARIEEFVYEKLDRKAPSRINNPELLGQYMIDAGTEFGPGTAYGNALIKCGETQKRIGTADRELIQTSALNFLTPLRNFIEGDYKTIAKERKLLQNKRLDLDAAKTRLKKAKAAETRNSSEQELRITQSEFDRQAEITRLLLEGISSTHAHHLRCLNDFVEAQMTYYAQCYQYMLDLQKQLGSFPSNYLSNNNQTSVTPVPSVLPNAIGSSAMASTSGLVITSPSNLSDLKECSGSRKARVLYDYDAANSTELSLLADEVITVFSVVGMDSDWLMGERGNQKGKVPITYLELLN

The other results are listed elsewhere or left out.

Compound in the assay: COc1ccc(Cn2ccc3ccc(C(=O)NO)cc32)cc1
The experiment in a line: dose-dependent thermal stabilisation call (2D-TPP, DLPTP, 10% FDR) (binary (1 = stabilised)); higher = stabilised by the compound. As to conditions: system: HL-60 intact cells; concentration range 0.04-10 µM.
As to SET (UniProt Q01105), the “dose-dependent thermal stabilisation call” value was active: 1.

Consider SLC39A6 (UniProt Q13433), for which the “dose-dependent thermal stabilisation call” value was inactive: 0.

Regarding SCAMP2 (UniProt O15127), the “dose-dependent thermal stabilisation call” value was inactive: 0.

For the target SHOC2 (UniProt Q9UQ13), the “dose-dependent thermal stabilisation call” value is inactive: 0.

SLC39A7 (UniProt Q92504): the “dose-dependent thermal stabilisation call” value was inactive: 0.

As to SHQ1 (UniProt Q6PI26), the “dose-dependent thermal stabilisation call” value is inactive: 0.

Turning to SEC61A1 (UniProt P61619), the “dose-dependent thermal stabilisation call” value was inactive: 0.

Take SCPEP1 (UniProt Q9HB40): the “dose-dependent thermal stabilisation call” value was inactive: 0.

SCD (UniProt O00767): the “dose-dependent thermal stabilisation call” value is inactive: 0.

SLC4A2 (UniProt P04920): the “dose-dependent thermal stabilisation call” value was inactive: 0.

As for SEPT7 (UniProt Q16181), the “dose-dependent thermal stabilisation call” value was inactive: 0.

With SLBP (UniProt Q14493), the “dose-dependent thermal stabilisation call” value is inactive: 0.

On to SLC23A2 (UniProt Q9UGH3), for which the “dose-dependent thermal stabilisation call” value is inactive: 0.

In the case of SLC35B2 (UniProt Q8TB61), the “dose-dependent thermal stabilisation call” value is inactive: 0.

On to SLAIN1 (UniProt Q8ND83), for which the “dose-dependent thermal stabilisation call” value was inactive: 0.

Consider SEC22B (UniProt O75396), for which the “dose-dependent thermal stabilisation call” value was inactive: 0.

On to SCARB1 (UniProt Q8WTV0), for which the “dose-dependent thermal stabilisation call” value is inactive: 0.

Consider SLC12A6 (UniProt Q9UHW9), for which the “dose-dependent thermal stabilisation call” value was inactive: 0.

On to SECISBP2 (UniProt Q96T21), for which the “dose-dependent thermal stabilisation call” value was inactive: 0.

For the target SF3A2 (UniProt Q15428), the “dose-dependent thermal stabilisation call” value was inactive: 0.

Consider SLC29A2 (UniProt Q14542), for which the “dose-dependent thermal stabilisation call” value was inactive: 0.

Regarding SFRS17A (UniProt Q02040), the “dose-dependent thermal stabilisation call” value was inactive: 0.

With SLC25A16 (UniProt P16260), the “dose-dependent thermal stabilisation call” value was inactive: 0.

Turning to SGTB (UniProt Q96EQ0), the “dose-dependent thermal stabilisation call” value was inactive: 0.

For SLC25A22 (UniProt Q9H936), the “dose-dependent thermal stabilisation call” value is inactive: 0.

Regarding SERPINE2 (UniProt P07093), the “dose-dependent thermal stabilisation call” value is inactive: 0.

Take SCYL2 (UniProt Q6P3W7): the “dose-dependent thermal stabilisation call” value was inactive: 0.

On to SLC19A1 (UniProt P41440), for which the “dose-dependent thermal stabilisation call” value is inactive: 0.

Turning to SF3B3 (UniProt Q15393), the “dose-dependent thermal stabilisation call” value was inactive: 0.

For the target SLC25A5 (UniProt P05141), the “dose-dependent thermal stabilisation call” value was inactive: 0.

Take SHCBP1 (UniProt Q8NEM2): the “dose-dependent thermal stabilisation call” value was inactive: 0.

Take SLC25A46 (UniProt Q96AG3): the “dose-dependent thermal stabilisation call” value was inactive: 0.

For the target SLC20A2 (UniProt Q08357), the “dose-dependent thermal stabilisation call” value was inactive: 0.

SCO1 (UniProt O75880): the “dose-dependent thermal stabilisation call” value was inactive: 0.

In the case of SEMA4C (UniProt Q9C0C4), the “dose-dependent thermal stabilisation call” value is inactive: 0.

As for SH3GLB1 (UniProt Q9Y371), the “dose-dependent thermal stabilisation call” value was inactive: 0.

As to SLC6A6 (UniProt P31641), the “dose-dependent thermal stabilisation call” value was inactive: 0.
